Test results published in publication PMC3857783, “Human Fanconi Anemia Complementation Group A Protein Stimulates the 5’ Flap Endonuclease Activity of FEN1” (PLoS ONE, 2013).
Results are given in words; binding and its absence hold for the method and conditions named. Binding seen in cells or lysates may run through a third protein. Some results given as binding are weak or reduced against the parent protein; the word gives no strength. Where a sequence is shown, tags or fusion partners need not be part of it.

The chains behind the UniProt entries cited, without tags or fusion partners. Where a name states a change or a piece, a line headed by the entry shows the natural chain unless it says otherwise.
UniProt P39748: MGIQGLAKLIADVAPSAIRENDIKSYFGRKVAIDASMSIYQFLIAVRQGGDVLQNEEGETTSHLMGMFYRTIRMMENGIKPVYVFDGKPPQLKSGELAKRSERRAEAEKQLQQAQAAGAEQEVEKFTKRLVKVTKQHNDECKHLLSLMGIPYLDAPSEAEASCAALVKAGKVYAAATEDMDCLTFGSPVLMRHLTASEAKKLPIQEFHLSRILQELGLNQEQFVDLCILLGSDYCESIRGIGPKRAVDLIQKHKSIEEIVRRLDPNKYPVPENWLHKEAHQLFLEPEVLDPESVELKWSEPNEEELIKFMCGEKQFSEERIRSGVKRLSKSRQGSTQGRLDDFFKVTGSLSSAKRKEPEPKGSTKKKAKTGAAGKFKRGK

Tests used:
[1] = biological target: T1, FLAG-FANCA (human Fanconi anemia complementation group A protein) (human) (UniProt O15360); experiment: co-IP; reciprocal; whole-cell extracts of FANCA-null (RA3087) and FLAG-FANCA-complemented cells; 600 μg extract with mouse anti-FLAG M2 or rabbit anti-FEN1 antibody overnight at 4 °C in 50 mM Tris-HCl pH 7.6, 100 mM NaCl, 1 mM DTT, 50 μg/mL BSA; protein G magnetic beads; Western blot
T1 sequence: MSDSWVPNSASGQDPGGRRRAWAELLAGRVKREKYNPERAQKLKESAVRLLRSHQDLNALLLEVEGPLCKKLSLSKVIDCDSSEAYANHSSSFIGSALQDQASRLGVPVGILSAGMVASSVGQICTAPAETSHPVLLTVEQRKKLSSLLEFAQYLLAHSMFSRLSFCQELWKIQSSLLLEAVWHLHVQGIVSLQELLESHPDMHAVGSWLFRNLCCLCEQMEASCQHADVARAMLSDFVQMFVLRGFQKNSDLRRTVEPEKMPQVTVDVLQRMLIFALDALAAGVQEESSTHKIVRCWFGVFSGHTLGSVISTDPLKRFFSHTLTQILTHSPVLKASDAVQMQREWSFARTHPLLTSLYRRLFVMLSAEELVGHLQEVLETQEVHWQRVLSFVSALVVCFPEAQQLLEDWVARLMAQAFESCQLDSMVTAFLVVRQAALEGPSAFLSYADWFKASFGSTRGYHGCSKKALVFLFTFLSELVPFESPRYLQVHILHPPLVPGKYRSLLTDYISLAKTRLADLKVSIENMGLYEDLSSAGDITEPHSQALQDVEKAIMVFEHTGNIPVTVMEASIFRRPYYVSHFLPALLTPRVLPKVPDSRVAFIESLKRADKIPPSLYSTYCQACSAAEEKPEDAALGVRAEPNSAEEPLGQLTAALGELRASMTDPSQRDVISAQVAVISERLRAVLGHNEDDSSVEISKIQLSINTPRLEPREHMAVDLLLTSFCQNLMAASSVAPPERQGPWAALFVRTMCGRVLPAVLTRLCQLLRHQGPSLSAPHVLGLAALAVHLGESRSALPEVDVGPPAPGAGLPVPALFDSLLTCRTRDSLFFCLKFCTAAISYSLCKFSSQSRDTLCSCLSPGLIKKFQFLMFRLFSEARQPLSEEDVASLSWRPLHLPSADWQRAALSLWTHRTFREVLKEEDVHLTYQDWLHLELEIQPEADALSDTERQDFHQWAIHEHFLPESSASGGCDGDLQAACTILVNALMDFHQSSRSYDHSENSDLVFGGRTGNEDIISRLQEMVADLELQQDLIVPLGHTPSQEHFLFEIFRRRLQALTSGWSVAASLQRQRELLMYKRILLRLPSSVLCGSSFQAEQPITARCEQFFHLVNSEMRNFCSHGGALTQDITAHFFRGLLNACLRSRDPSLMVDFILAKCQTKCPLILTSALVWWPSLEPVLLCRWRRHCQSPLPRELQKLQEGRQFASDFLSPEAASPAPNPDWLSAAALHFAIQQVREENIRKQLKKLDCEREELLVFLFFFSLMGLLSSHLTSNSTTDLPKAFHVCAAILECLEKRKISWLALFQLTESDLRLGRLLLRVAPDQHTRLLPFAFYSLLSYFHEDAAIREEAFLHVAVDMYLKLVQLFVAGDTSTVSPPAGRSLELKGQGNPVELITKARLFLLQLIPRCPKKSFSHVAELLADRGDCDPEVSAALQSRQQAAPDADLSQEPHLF

[2] = biological target: Flap endonuclease 1 (FEN1) (human (endogenous in RA3087 cells)) (UniProt P39748); experiment: as above

Row | Molecule | binding [1] | binding [2]
1 | Flap endonuclease 1 (FEN1) (from UniProt P39748-1 1-380) (enzyme) | binds | –
2 | FLAG-FANCA (human Fanconi anemia complementation group A protein) (natural protein, UniProt O15360-1 1-1455, looked up) MSDSWVPNSASGQDPGGRRRAWAELLAGRVKREKYNPERAQKLKESAVRLLRSHQDLNALLLEVEGPLCKKLSLSKVIDCDSSEAYANHSSSFIGSALQDQASRLGVPVGILSAGMVASSVGQICTAPAETSHPVLLTVEQRKKLSSLLEFAQYLLAHSMFSRLSFCQELWKIQSSLLLEAVWHLHVQGIVSLQELLESHPDMHAVGSWLFRNLCCLCEQMEASCQHADVARAMLSDFVQMFVLRGFQKNSDLRRTVEPEKMPQVTVDVLQRMLIFALDALAAGVQEESSTHKIVRCWFGVFSGHTLGSVISTDPLKRFFSHTLTQILTHSPVLKASDAVQMQREWSFARTHPLLTSLYRRLFVMLSAEELVGHLQEVLETQEVHWQRVLSFVSALVVCFPEAQQLLEDWVARLMAQAFESCQLDSMVTAFLVVRQAALEGPSAFLSYADWFKASFGSTRGYHGCSKKALVFLFTFLSELVPFESPRYLQVHILHPPLVPGKYRSLLTDYISLAKTRLADLKVSIENMGLYEDLSSAGDITEPHSQALQDVEKAIMVFEHTGNIPVTVMEASIFRRPYYVSHFLPALLTPRVLPKVPDSRVAFIESLKRADKIPPSLYSTYCQACSAAEEKPEDAALGVRAEPNSAEEPLGQLTAALGELRASMTDPSQRDVISAQVAVISERLRAVLGHNEDDSSVEISKIQLSINTPRLEPREHMAVDLLLTSFCQNLMAASSVAPPERQGPWAALFVRTMCGRVLPAVLTRLCQLLRHQGPSLSAPHVLGLAALAVHLGESRSALPEVDVGPPAPGAGLPVPALFDSLLTCRTRDSLFFCLKFCTAAISYSLCKFSSQSRDTLCSCLSPGLIKKFQFLMFRLFSEARQPLSEEDVASLSWRPLHLPSADWQRAALSLWTHRTFREVLKEEDVHLTYQDWLHLELEIQPEADALSDTERQDFHQWAIHEHFLPESSASGGCDGDLQAACTILVNALMDFHQSSRSYDHSENSDLVFGGRTGNEDIISRLQEMVADLELQQDLIVPLGHTPSQEHFLFEIFRRRLQALTSGWSVAASLQRQRELLMYKRILLRLPSSVLCGSSFQAEQPITARCEQFFHLVNSEMRNFCSHGGALTQDITAHFFRGLLNACLRSRDPSLMVDFILAKCQTKCPLILTSALVWWPSLEPVLLCRWRRHCQSPLPRELQKLQEGRQFASDFLSPEAASPAPNPDWLSAAALHFAIQQVREENIRKQLKKLDCEREELLVFLFFFSLMGLLSSHLTSNSTTDLPKAFHVCAAILECLEKRKISWLALFQLTESDLRLGRLLLRVAPDQHTRLLPFAFYSLLSYFHEDAAIREEAFLHVAVDMYLKLVQLFVAGDTSTVSPPAGRSLELKGQGNPVELITKARLFLLQLIPRCPKKSFSHVAELLADRGDCDPEVSAALQSRQQAAPDADLSQEPHLF | – | binds
